These are yes or no findings as the source states them, for the method shown. In cells and extracts the contact can be indirect. Some results given as binding are weak or reduced against the parent protein; the word gives no strength.
Legend:
[1] = target: protein tyrosine phosphatase receptor type F polypeptide interacting protein alpha 4 (PPFIA4) (human (endogenous in C4-2B and LNCaP)) (UniProt O75335); assay: co-IP; endogenous proteins in C4-2B whole cell (total) lysates; IgG as negative control; also in cells transfected with siNC or siPPFIA4
[2] = target: protein tyrosine phosphatase receptor type F polypeptide interacting protein alpha 4 (PPFIA4) (human (endogenous in C4-2B and LNCaP)) (UniProt O75335); assay: co-IP; endogenous proteins in LNCaP cell lysates; IgG as negative control; cells with or without androgen deprivation (charcoal-stripped serum), or transfected with empty vector or PPFIA4 overexpression plasmid
[3] = target: protein tyrosine phosphatase receptor type F polypeptide interacting protein alpha 4 (PPFIA4) (human (endogenous in C4-2B and LNCaP)) (UniProt O75335); assay: co-IP; cytoplasmic and mitochondrial extracts fractionated from C4-2B cells (Cell Mitochondria Isolation Kit); IgG as negative control; COXIV and tubulin as markers

Protein sequences, listed by entry. Tags and fused reporters are not part of them.
UniProt O75335: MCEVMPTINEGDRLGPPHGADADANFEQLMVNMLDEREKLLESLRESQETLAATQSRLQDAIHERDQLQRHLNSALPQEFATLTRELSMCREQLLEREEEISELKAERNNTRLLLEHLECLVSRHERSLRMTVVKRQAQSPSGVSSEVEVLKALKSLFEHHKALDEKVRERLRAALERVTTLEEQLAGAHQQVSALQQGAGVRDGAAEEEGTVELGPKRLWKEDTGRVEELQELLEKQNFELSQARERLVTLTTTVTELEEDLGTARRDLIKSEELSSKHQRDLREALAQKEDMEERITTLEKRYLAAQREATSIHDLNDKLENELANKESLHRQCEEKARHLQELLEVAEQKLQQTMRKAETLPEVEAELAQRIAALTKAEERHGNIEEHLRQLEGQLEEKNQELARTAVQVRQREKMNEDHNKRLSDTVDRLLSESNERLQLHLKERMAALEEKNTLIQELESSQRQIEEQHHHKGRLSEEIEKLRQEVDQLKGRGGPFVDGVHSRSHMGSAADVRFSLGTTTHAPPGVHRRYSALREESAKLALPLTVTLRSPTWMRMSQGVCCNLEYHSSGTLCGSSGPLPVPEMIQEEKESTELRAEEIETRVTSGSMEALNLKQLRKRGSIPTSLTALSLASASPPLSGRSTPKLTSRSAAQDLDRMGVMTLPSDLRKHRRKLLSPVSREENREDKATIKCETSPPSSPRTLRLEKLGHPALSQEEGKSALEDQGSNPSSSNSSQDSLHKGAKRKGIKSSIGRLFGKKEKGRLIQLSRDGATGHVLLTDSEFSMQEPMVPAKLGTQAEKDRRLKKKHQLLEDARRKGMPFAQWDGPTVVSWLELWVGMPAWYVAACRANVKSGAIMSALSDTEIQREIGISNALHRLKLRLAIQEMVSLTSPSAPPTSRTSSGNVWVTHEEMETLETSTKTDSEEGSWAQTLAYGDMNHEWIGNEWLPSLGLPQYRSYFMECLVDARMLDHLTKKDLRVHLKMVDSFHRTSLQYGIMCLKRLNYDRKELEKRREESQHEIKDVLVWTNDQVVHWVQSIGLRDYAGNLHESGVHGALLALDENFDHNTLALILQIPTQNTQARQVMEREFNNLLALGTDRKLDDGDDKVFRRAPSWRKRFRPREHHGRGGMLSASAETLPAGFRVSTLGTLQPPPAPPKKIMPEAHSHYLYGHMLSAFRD

binding [1]: binds
binding [2]: binds
binding [3]: binds
B1: methylenetetrahydrofolate dehydrogenase 2 (MTHFD2) (enzyme, UniProt P13995 36-350)
chain: EAVVISGRKLAQQIKQEVRQEVEEWVASGNKRPHLSVILVGENPASHSYVLNKTRAAAVVGINSETIMKPASISEEELLNLINKLNNDDNVDGLLVQLPLPEHIDERRICNAVSPDKDVDGFHVINVGRMCLDQYSMLPATPWGVWEIIKRTGIPTLGKNVVVAGRSKNVGMPIAMLLHTDGAHERPGGDATVTISHRYTPKEQLKKHTILADIVISAAGIPNLITADMIKEGAAVIDVGINRVHDPVTAKPKLVGDVDFEGVRQKAGYITPVPGGVGPMTVAMLMKNTIIAAKKVLRLEEREVLKSKELGVATN

From paper PMC8985307
